# Experimental data published in PubChem BioAssay AID493014 (National Center for Advancing Translational Sciences (NCATS), 2011).
# The whole screen tested about 340,000 compounds, of which about 170 (0.05%) were called active. This list was built around the results that the source calls inconclusive (neither active nor inactive); the mix of calls is not that of the screen. Calls come from the whole dose curve; as a rule, active = well fitted inhibition curve with a large enough effect in the signal ratio, with a control signal flat (not every such curve was filed as active); inconclusive = small, poorly fitted or top-dose-only effect, or effect the other way, or a change in a side signal; inactive = flat fitted curve, though single readings scatter; the % refers to the signal ratio. Where the call is inconclusive, the potency comes from a doubtful curve fit.
# Assay: qHTS Assay to Find Inhibitors of Chronic Active B-Cell Receptor Signaling;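 for activity change, negative = inhibition: plate controls were basal doxycycline-induced cells for no effect and cells given 10 µM MG132 for full effect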
# Conditions: ABC-DLBCL IkBa-CBG/CBR reporter, luminescence ratio (green luciferase fused to IkBa over red control in TMD8 lymphoma cells), 4 h; activity change, negative = inhibition: at 46.1 µM (top of the series) unless noted
# Outline: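 Compounds up to 46 uM were incubated four hours with TMD8 cells whose green CBG68 luciferase is fused to IkappaBalpha; red CBR luminescence normalised the signal, and concentration-effect curves were fitted to fusion, red and ratio data.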
# Potency is the fitted concentration of half-maximal effect.
Compound,"activity change, negative = inhibition",Potency
CCN1CCN(CC(=O)Nc2ccc(OC(F)(F)F)cc2)CC1,inconclusive: 4.73%,–
c1ccc(CSc2snnc2-c2ccccc2)cc1,inconclusive: 23.1%,–
COC(=O)c1sccc1NC(=O)Cc1ccc(OC)c(OC)c1,–,"inconclusive: 5.8 µM [falling, partial curve, poor fit]"
CCOC(=O)c1c(NCc2ccc3c(c2)OCO3)c2ccccc2[nH]c1=O,–,"inconclusive: 20.6 µM [falling, single point]"
Cc1nc(C)c(C(=O)Nc2nc3c(C)cccc3s2)o1,inconclusive: -3.69%,–
CCC(/C=N/NC(=O)c1ccccc1F)CC,–,"inconclusive: 31.6 µM [rising, single point]"
COc1ccccc1C(=O)NCCC(=O)NCC(c1ccc(F)cc1)N1CCOCC1 (configuration not stated),inconclusive: -11.3%,–
Nc1ccc(O)c2c1C(=O)c1ccccc1C2=O,inactive: 11.4%,–
COc1cc(/C=C/C(=O)Nc2cccc(S(=O)(=O)N3CCOCC3)c2)ccc1OCC#N,inactive: -16.1%,–
Cc1ccc(C2(C)NC(=O)N(CC(=O)Nc3ccc(-c4nc5ccc(C)cc5s4)cc3)C2=O)cc1 (configuration not stated),inconclusive: 11.6%,–
CCOc1ccc(N(CC(=O)Nc2ccccc2OCC)S(=O)(=O)c2c(C)noc2C)cc1,–,"inconclusive: 7.08 µM [falling, partial curve]"
COc1cccc2c1OC1(C)CC2NC(=O)N1c1cccc(C(=O)Nc2ccc3c(c2)OCCO3)c1 (configuration not stated),inconclusive: -26.2%,–
Cc1ccc(Cl)cc1NC(=O)c1cnn2c1NC(c1ccco1)CC2C(F)(F)F (configuration not stated),inconclusive: -15.5%,–
CCNc1nc(SC(C)C(=O)OC)nc(N2CCOCC2)n1 (configuration not stated),inconclusive: -1.73%,–
O=C(CN(Cc1ccc(Br)cc1)S(=O)(=O)c1ccccc1)NCc1cccnc1,inconclusive: -13.9%,–
N#CCCn1c(SCC(=O)NCC2CCCO2)nc2ccccc21 (configuration not stated),inactive: 5.83%,–
CCc1nc(SCC(=O)N2CC(=O)Nc3ccccc32)c2c(C)c(C)sc2n1,inconclusive: -2.85%,–
O=C(O)c1ccc(/C=C2\SC(=S)N(Nc3ccccc3)C2=O)cc1,–,"inconclusive: 35.5 µM [falling, single point]"
COc1cc(/C=C(\CC(=O)O)c2nc3ccccc3s2)cc(OC)c1O,inconclusive: -20.5%,–
O=C(Nc1nccs1)c1ccc(Br)c(S(=O)(=O)N2CCCC2)c1,inconclusive: 6.29%,–
COC(=O)CSc1nc(N)nc(C)c1Cl,inconclusive: 15.1%,–
O=C(Cc1cccs1)Nc1nnc(Cc2ccccc2)s1,–,"inconclusive: 6.51 µM [rising, partial curve, poor fit]"

# Full records as entered above.
# Cc1ccc(C2(C)NC(=O)N(CC(=O)Nc3ccc(-c4nc5ccc(C)cc5s4)cc3)C2=O)cc1 (configuration not stated) in the list: activity change, negative = inhibition: inconclusive: 11.6%
# Nc1ccc(O)c2c1C(=O)c1ccccc1C2=O in the list: activity change, negative = inhibition: inactive: 11.4%
